{
  "source": "patent US20060009506A1",
  "about": "“Drugs for the treatment of neoplastic disorders” (Odyssey Thera, Inc., priority 2004, published 2006)",
  "key": {"cancer pathways": {"tested_on": "cancer pathways", "assay": "Screening of cancer pathways in human cells (PCA and phospho-immunofluorescence)", "assay_type": "cell-based", "conditions": "cancer pathway in which the drug was active; screened at 10 micromolar, HEK293 cells", "text": "We first screened compounds derived from the known pharmacopeia and from a selected natural product collection using two types of assays: (a) measurements of post-translational modifications of proteins; (b) measurements of protein-protein interactions. For the purpose of measuring post-translational modifications of proteins, we used immunofluorescence methods combined with phospho-specific antibodies. For the purpose of quantifying and localizing protein complexes we used fluorescence methods based on protein-fragment complementation assays (PCA). ‘Hits’ from the initial screens were then tested for antiproliferative activity in up to 5 different human tumor cell lines. […] For drugs with antiproliferative activity in PC-3 cells, dose-response curves were generated to determine the EC50 for antiproliferative activity and additional tumor cell lines were tested to determine the breadth of activity. […]\nImmunofluorescence was performed on drug-treated cells using antibodies that specifically recognize phosphorylated forms of key signaling proteins. […] Background fluorescence due to nonspecific binding by the secondary antibody was established with the use of cells that were incubated with BSA/PBS and without primary antibodies. Fluorescence intensities were quantitated using Image J-based image analysis algorithm as described below. […]"}, "cancer cells": {"tested_on": "cancer cells", "assay": "Antiproliferative activity against cancer cells (cell line not stated)", "assay_type": "cell-based, human", "conditions": "general statement", "text": "We first screened compounds derived from the known pharmacopeia and from a selected natural product collection using two types of assays: (a) measurements of post-translational modifications of proteins; (b) measurements of protein-protein interactions. For the purpose of measuring post-translational modifications of proteins, we used immunofluorescence methods combined with phospho-specific antibodies. For the purpose of quantifying and localizing protein complexes we used fluorescence methods based on protein-fragment complementation assays (PCA). ‘Hits’ from the initial screens were then tested for antiproliferative activity in up to 5 different human tumor cell lines. […]\nCells were maintained in various media as follows: A549, LoVo and PC-3 (Ham's F12K medium with 2 mM L-glutamine and 1.5 g/L sodium bicarbonate), MIA PaCa-2 (Dulbecco's modified Eagle's medium with 4 mM L-glutamine and 4.5 g/L glucose), U87-MG (MEM+Earle's BSS). […] Background absorbance was established by wells containing medium but no cells. […] Mean absorbance values were calculated from 5 replicate wells of each drug treatment following subtraction of background absorbance from blank samples and plotted as a percentage of control."}},
  "note": "For at least one compound, name, drawing or mass did not settle the structure. Some compounds share one wording; it may come from a single statement.",
  "data": [
    {"smiles": "C[n+]1cc2c3c(ccc2c2ccc4cc5c(cc4c21)OCO5)OCO3", "note": "[Sanguinarine]", "values": [
      {"measurement": "Pathway Activity", "setting": "cancer pathways", "value": "proliferation"},
      {"measurement": "Antiproliferative activity against cancer cells", "setting": "cancer cells", "value": "substantial antiproliferative activity"}
    ]}
  ]
}
